# Measurements as given in the supplement of paper PMC6143611.
# Where a name gives a salt, the structure may show the parent alone. ± gives the uncertainty stated by the source. Some of the results follow. Baselines shift from plate to plate; read single values as rough.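 At 6 dpf, larvae had a heat-shock-induced fluorescent stripe placed in rod outer segments; shedding distance, from stripe to outer segment tip, was measured in confocal stacks, roughly three fish per compound. Controls received 0.2% DMSO vehicle; compounds were flagged for ≥20% change versus same-week control and p < 0.001 (Dunnett test, mixed-effects models).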
# What was measured:
# [1] = test system: Danio rerio larva rod photoreceptor outer segment; assay: rod outer segment growth distance Dg, difference from same-week DMSO control mean; higher = more outer segment growth; conditions: 20 µM; treatment time: 4 days (6-10 dpf)
# [2] = test system: Danio rerio larva rod photoreceptor outer segment; assay: rod outer segment shedding distance Ds, difference from same-week DMSO control mean; higher = less outer segment shedding; conditions: 20 µM; treatment time: 4 days (6-10 dpf)
Compound,rod outer segment growth distance Dg [1] [um],rod outer segment shedding distance Ds [2] [um]
CCOc1nc2cccc(C(=O)O)c2n1Cc1ccc(-c2ccccc2-c2nnn[nH]2)cc1 [Candesartan],0.26 ± 0.16,0.21 ± 0.14
CC1Cc2ccccc2N1NC(=O)c1ccc(Cl)c(S(N)(=O)=O)c1 (configuration not stated) [Indapamide],0.79 ± 0.29,-0.2 ± 0.21
O=S(=O)(O)CCSSCCS(=O)(=O)O [Dimesna],0.55 ± 0.19,-1.18 ± 0.27
CC(=O)OCC(=O)NCCCOc1cccc(CN2CCCCC2)c1 [Roxatidine Acetate HCl],0.46 ± 0.19,0.25 ± 0.28
CO/N=C(\C(=O)N[C@@H]1C(=O)N2C(C(=O)O)=C(Cn3ccc(=N)n3CCO)CS[C@H]12)c1csc(N)n1 [Cefoselis Sulfate],-0.67 ± 0.25,-0.54 ± 0.25
CCCc1nc(C)c2c(=O)nc(-c3cc(S(=O)(=O)N4CCN(CC)CC4)ccc3OCC)[nH]n12 [Vardenafil HCl Trihydrate],0.12 ± 0.22,0.88 ± 0.3
Nc1nc(Cl)nc2c1ncn2[C@@H]1O[C@H](CO)[C@@H](O)[C@@H]1F [Clofarabine],0.64 ± 0.18,-0.56 ± 0.18
CCCC(=O)Nc1cccc(NC(=O)c2ccccc2Br)c1,-1.46 ± 0.23,-0.54 ± 0.19
O=C(NCCCNc1nc(Nc2cccc(NC(=O)N3CCCC3)c2)ncc1I)c1cccs1,-0.21 ± 0.25,-0.28 ± 0.31
CCOC(=O)O[C@]1(C(=O)OCCl)CC[C@H]2[C@@H]3CCC4=CC(=O)C=C[C@]4(C)[C@H]3[C@@H](O)C[C@@]21C [Loteprednol etabonate],-0.47 ± 0.22,0.14 ± 0.19
CC(=O)NC[C@H]1CN(c2ccc(N3CCOCC3)c(F)c2)C(=O)O1 [Linezolid],0.08 ± 0.19,0.2 ± 0.21

# Quoted at random: two compounds from above
Compound,rod outer segment growth distance Dg [1] [um],rod outer segment shedding distance Ds [2] [um]
Nc1nc(Cl)nc2c1ncn2[C@@H]1O[C@H](CO)[C@@H](O)[C@@H]1F [Clofarabine],0.64 ± 0.18,-0.56 ± 0.18
O=C(NCCCNc1nc(Nc2cccc(NC(=O)N3CCCC3)c2)ncc1I)c1cccs1,-0.21 ± 0.25,-0.28 ± 0.31
